# Laboratory results from publication PMC7948947.
# Protein sequences, listed by entry. Tags and fused reporters are not part of them. Lines headed by an entry give the natural chain unless they say otherwise; changes in a name come on top. Chains listed by the source or under a name are the forms on record and can include a tag or linker. Residues count along the entry.
# UniProt P67775: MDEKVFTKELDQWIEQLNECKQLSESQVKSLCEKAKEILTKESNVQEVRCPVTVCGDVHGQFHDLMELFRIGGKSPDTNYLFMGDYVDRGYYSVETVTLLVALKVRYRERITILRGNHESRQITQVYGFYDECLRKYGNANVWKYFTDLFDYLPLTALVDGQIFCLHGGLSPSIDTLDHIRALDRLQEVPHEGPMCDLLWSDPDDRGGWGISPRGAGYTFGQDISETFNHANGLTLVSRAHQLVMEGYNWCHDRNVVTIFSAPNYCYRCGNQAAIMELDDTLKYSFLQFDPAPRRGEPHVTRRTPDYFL
# HA-tagged methylation site L309Δ PP2Ac mutant: residues 1-308 of P67775
# UniProt P39688: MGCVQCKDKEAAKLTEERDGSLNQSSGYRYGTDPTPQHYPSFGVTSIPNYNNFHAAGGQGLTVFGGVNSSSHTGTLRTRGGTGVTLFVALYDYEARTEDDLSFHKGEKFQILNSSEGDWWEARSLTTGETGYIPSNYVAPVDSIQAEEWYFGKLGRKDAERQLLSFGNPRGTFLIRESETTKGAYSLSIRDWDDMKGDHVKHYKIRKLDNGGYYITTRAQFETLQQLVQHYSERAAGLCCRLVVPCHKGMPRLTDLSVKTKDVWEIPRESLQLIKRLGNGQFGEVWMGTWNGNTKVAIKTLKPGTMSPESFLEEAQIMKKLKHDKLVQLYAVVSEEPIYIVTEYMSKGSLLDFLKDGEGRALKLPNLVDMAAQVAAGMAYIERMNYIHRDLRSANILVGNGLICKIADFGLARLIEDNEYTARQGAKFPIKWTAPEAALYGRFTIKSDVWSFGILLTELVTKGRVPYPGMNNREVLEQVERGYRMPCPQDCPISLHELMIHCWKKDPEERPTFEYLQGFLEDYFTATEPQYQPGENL
# UniProt P06241: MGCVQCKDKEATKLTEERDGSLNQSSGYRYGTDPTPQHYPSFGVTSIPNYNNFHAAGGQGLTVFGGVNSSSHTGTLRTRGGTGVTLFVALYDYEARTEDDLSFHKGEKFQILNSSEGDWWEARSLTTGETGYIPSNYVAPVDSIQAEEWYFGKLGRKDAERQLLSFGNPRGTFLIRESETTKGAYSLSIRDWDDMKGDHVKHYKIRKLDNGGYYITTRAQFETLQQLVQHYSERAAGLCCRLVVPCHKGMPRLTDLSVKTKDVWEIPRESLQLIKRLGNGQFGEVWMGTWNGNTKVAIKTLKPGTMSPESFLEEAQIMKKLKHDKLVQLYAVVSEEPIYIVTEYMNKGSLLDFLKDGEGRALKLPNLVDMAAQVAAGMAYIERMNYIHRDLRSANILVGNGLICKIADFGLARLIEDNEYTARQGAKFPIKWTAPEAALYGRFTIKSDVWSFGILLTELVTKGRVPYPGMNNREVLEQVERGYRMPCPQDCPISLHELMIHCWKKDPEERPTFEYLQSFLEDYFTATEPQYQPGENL
# Results are given in words; binding and its absence hold for the method and conditions named. In cells and extracts the contact can be indirect. Some entries that bind do so weakly or less than the wild type. For part of these data: Where a sequence is shown, tags or fusion partners need not be part of it.
# How the values were obtained:
# HA-tagged WT PP2Ac = HA-tagged WT PP2Ac (UniProt P67775); test: co-IP; anti-HA–coupled magnetic beads, total lysates of N2a cells stably expressing HA-PP2Ac WT or L309Δ (EV control), overnight at 4 °C; Western blot for Fyn, HA, PP2Ac
# [1] = target: HA-tagged methylation site L309Δ PP2Ac mutant (UniProt P67775); test: as above
# [2] = target: T1, Flag-tagged PP2A Bα (PPP2R2A) subunit (UniProt P63151); test: co-IP; anti-Flag–coupled (M2) magnetic beads, total lysates of N2a cells coexpressing Flag–Bα and GFP–Fyn, overnight at 4 °C; Western blot for Fyn, PP2Ac, Bα
# T1 sequence: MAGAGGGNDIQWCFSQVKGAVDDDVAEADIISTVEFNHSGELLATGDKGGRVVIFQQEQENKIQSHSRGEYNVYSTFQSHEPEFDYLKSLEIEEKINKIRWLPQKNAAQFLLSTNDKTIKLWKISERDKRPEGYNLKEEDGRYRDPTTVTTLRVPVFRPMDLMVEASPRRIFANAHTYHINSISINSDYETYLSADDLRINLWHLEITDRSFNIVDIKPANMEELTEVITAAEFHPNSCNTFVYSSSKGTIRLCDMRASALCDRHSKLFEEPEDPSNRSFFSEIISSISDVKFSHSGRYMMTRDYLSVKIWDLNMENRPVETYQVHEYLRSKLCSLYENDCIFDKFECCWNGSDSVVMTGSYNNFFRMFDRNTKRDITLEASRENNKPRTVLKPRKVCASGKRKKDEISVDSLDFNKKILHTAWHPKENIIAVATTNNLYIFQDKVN
binding (HA-tagged WT PP2Ac),binding [1],binding [2],Substance
binds,no binding,–,Fyn (endogenous) (from UniProt P39688 1-537)
–,–,binds,GFP-tagged human Fyn (from UniProt P06241 1-537)
